Results as given in PMC5300874.
Positions count from the first letter of the chain named. Results are given in words; binding and its absence hold for the method and conditions named. In cells and extracts the contact can be indirect. Some entries that bind do so weakly or less than the wild type. Sequences can lack the tags named with a protein.

The chains behind the UniProt entries cited, without tags or fusion partners.
UniProt Q8TRB6: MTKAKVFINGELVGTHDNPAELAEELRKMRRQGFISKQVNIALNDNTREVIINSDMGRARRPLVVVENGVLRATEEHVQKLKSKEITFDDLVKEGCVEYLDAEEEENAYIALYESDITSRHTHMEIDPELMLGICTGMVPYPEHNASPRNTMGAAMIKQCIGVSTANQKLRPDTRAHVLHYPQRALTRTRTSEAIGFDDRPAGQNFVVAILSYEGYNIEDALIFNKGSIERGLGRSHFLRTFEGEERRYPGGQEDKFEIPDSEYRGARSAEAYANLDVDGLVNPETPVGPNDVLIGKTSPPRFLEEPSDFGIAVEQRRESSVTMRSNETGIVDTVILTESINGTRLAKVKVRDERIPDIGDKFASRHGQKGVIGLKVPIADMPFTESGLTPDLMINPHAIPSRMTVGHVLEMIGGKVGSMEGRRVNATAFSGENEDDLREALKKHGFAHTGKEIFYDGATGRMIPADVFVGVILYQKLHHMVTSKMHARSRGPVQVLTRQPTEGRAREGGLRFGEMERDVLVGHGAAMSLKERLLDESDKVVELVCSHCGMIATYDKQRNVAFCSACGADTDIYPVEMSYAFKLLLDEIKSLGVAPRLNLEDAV

Experiments:
[1] = target: T1, (His)Rpo3, N-terminally histidine-tagged wild-type Rpo3 expressed in Methanosarcina acetivorans (Methanosarcina acetivorans) (UniProt P0CG28); test: pull-down; gene replacement M. acetivorans strains (native rpo3 replaced); (His)Rpo3 variant held on Ni2+-agarose from lysate, anaerobic; eluates normalised to Rpo3; western blot for Rpo11, Rpo2′, Rpo1″
T1 sequence: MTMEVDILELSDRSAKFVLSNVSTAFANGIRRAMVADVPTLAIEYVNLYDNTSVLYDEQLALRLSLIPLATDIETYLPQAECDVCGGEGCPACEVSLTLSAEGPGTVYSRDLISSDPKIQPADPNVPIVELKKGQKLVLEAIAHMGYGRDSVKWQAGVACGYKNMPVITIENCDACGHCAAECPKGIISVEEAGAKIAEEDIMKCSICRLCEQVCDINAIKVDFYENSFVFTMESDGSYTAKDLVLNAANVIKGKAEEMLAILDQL

[2] = target: T2, (His)Rpo3mFeS2 (Methanosarcina acetivorans) (UniProt P0CG28); test: as above
T2 sequence: T1 sequence with C173S, C176S, C179S

[3] = target: T1, (His)Rpo3, N-terminally histidine-tagged wild-type Rpo3 expressed in Methanosarcina acetivorans (Methanosarcina acetivorans); test: pull-down; merodiploid M. acetivorans strains (native Rpo3 also present), tetracycline-induced; (His)Rpo3 variant held on Ni2+-agarose from lysate, anaerobic; eluates normalised to 15 ng (His)Rpo3; western blot for Rpo11, Rpo2′, Rpo1″

Measured: binding

Rpo2′ (RpoB′), catalytic subunit of Methanosarcina acetivorans RNA polymerase (from UniProt Q8TRB6 1-604)
binds: all assays above
